Out of some 52,000 sequences screened, about 210 (0.4%) were called active.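 How the source made its calls: active means gene whose silencing raises cell survival under the drug, median off-target-corrected z-score across its silencing RNAs 2 or more; inactive means the rest.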 Some of the results follow.

A short description of this assay: Resistance to Poly (ADP-Ribose) Polymerase inhibitor: Gene Identification via Genome-wide siRNA Screen. The settings on record: mouse BRCA2 R2336H ES cells, olaparib, CellTiter-Glo viability; active compounds read high. Put shortly:
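Mouse BRCA2 R2336H ES cells were reverse-transfected with siRNA (20 nM final), treated at 48 h with 500 nM olaparib, and read by CellTiter-Glo after 72 h. Scores: MAD-based z per siRNA, median per gene, seed off-target correction.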
For orientation: Cellular ATP, detected with luciferase, serves as a proxy for viable cell number.
With GCCAAUGCCCUUGUGCAAATT against Olfr344, the z-score is inactive: 0.401.

Consider GCCAGGUACAUUCUUUGUGTT against Tnfrsf7, for which the z-score is inactive: -0.192.

With “GGCGUGGCAACAUGGACAATT against 6530411B15Rik”, the z-score was inactive: -0.18.

As to GCCCGUAGAUAUGAUCUUCTT against V1rk1, the z-score is inactive: 0.667.

On to GGAAGCUGAUGAAUAUGUUTT against Acly, for which the z-score is inactive: 0.0318.

As to GGAAGACUUGAUAGAUGAATT against C4, the z-score was inactive: 0.0169.

Turning to GCUUAACGGGAGUUAUGAGTT against Capn9, the z-score was inactive: 1.72.

Regarding GAAGUCAUGGUUCCUACCATT against Clcn1, the z-score was inactive: 0.425.

For the sequence GGACUGAACCGUUUUAAAGTT against Fmo3, the z-score is inactive: -0.243.

Take GGGUUGAAUAUGUAGCUUGTT against Dsg1a: the z-score was inactive: -0.497.

In the case of GGCAAGGUAUCCUCACUUGTT against Arpp19, the z-score is inactive: -1.39.

As to “CGAGGCACCAGAUUUGUAATT against 4631423F02Rik”, the z-score was inactive: -0.439.

As for CCUGUACAAUUGACCUACATT against Serpinb1c, the z-score is inactive: -1.19.

Turning to GGAUAUACCAUCAAUGUACTT against Hdac6, the z-score was inactive: 1.07.

For GGGCUAUGAGGUAACCACUTT against Ahcy, the z-score is inactive: -0.576.

As to “GCGGCUUACUCAAAUCAAGTT against D2Ertd485e”, the z-score is inactive: 0.123.

CGACAAAAUUACCAGGUCATT against Hmx3: the z-score is inactive: 0.863.

Consider GCAUGGCACUUUUUUAUACTT against Olfr1365, for which the z-score was inactive: 0.801.

With GCUAUUUUUAUAAGGGCCATT against Aps, the z-score was inactive: -0.213.

For “GGGCACACGUACCAACUAUTT against 2210008I11Rik”, the z-score is inactive: -2.16.

With CCGGGUGCUGUUCUAUAAGTT against Pecam1, the z-score is inactive: 0.0651.

Regarding “GGAACUCAGAGUGUACGCATT against E030006K04Rik”, the z-score was inactive: -0.33.

In the case of GGACUAUUCUACCAAGUACTT against Txnl4, the z-score was inactive: -2.12.

On to GGAGAUGAUACAUAAUCUATT against Psmd12, for which the z-score was inactive: -1.18.

Turning to GCAGAGGCUCGUCCAUAUATT against Dnpep, the z-score is inactive: 0.44.

For the sequence GGGAACCUUACUGUGUUAUTT against Gpr85, the z-score was inactive: -0.237.

As for GGACGUGUGGCUGUUGACATT against Sdc1, the z-score was inactive: -2.23.

Regarding CGCGAGUUUUUCUUUAAUGTT against Hoxd11, the z-score was inactive: 0.328.

In the case of GGUCAACAUCACCUUCAAUTT against Scarb1, the z-score was inactive: -1.15.

As for GGCAUCUCUGAGUUACAUUTT against Ssfa1, the z-score is inactive: -0.287.

Consider GGCCUGCUAUCGUUCAGAATT against Mkln1, for which the z-score was inactive: -0.516.

For the sequence GGAAUCUCGGAGGAAAACUTT against Hyou1, the z-score was inactive: 0.534.

“GCCUGUGGGAACUGACUAATT against 4931406H21Rik”: the z-score was inactive: -2.56.

Regarding GGUCCUGAAGAUACCAUCUTT against Olfr1377, the z-score was inactive: -0.98.

Turning to “GGACAGUAGUUCUUUAUCUTT against 1200011I18Rik”, the z-score was inactive: -0.435.

On to CGGCUGAUGCUUGACCUAATT against BC018242, for which the z-score is inactive: 0.885.

In the case of GCUAUAGACAAGGAGAGUATT against Galnt6, the z-score was inactive: -1.15.

With “GCCUUUUAAUAGAUGUCAUTT against 1110059P08Rik”, the z-score was inactive: -0.636.

Turning to GGGCUAUGAGAAGUUGCUATT against AU067744, the z-score is inactive: 0.495.

Regarding GGUGUUGAGUGCACUACUGTT against LOC380969, the z-score was inactive: 0.929.

For the sequence GGCAAAUUCUACUACAAGATT against Pms2, the z-score is inactive: 0.181.

Regarding “GGAUGGAACAGACUAUAGUTT against 5330437I02Rik”, the z-score was inactive: 1.14.

For the sequence “CCCACCAGCGGAAUUUGAUTT against C330005M16Rik”, the z-score was inactive: -0.8.

As for GGCAAGUGCCCAAGUUUGUTT against Ifi35, the z-score is inactive: -1.91.

On to “GCUUCAACAGUAAUAAUCGTT against 5930437A14Rik”, for which the z-score is inactive: 0.434.

As to GGAGAGAAAGAAUUUCAUCTT against Chordc1, the z-score was inactive: -0.00737.

As for CCUAAUCUGGUAUACCAGATT against Slc7a1, the z-score was inactive: -0.919.

With GCCAUCUUCGGUCAACUCUTT against Olfr969, the z-score is inactive: -1.01.

As for GGAAGAUCAUAGCAAAAGGTT against Casp3, the z-score is inactive: -0.171.

With “GGCAACUGUUGUAAAUCAATT against 2810471M23Rik”, the z-score is inactive: 0.58.

Turning to “GGCUGGAGAUCUCUCAAAGTT against 6330571D19Rik”, the z-score was inactive: 0.913.

Regarding “GGAGAAGAGCAUAAAUACATT against 2410137M14Rik”, the z-score was inactive: -2.01.

For GGAUACAUGUGGUGCCAAUTT against Banf1, the z-score was inactive: -2.45.

For “GGUGUUAAGACUCAGCUCATT against A930021H16Rik”, the z-score is inactive: -0.149.

In the case of GCUCAUGGGUAUGAUCAAUTT against Sox5, the z-score was inactive: -1.06.

“GGCCAAUCUAUGCUGUCCCTT against 3110001H15Rik”: the z-score is inactive: 0.147.

Take GGCAAAAUCGUGAAAAUUCTT against Vwf: the z-score is inactive: 0.814.

Turning to GCUGCACGGUGAGUUUAAATT against Gpm6b, the z-score is inactive: 1.53.

Regarding GGGCUUCACCAUUAUCAUUTT against Ercc2, the z-score was inactive: -1.99.

Regarding CCCUCUCCAAUAUUCUUUATT against Olfr1116, the z-score is inactive: 0.139.

For the sequence CCUCGGAUUGUUCAGACCUTT against Plxna4, the z-score is inactive: -0.466.

As to CCUGAUAAUGAAUAACUCGTT against Stard3nl, the z-score is inactive: -0.0653.

For the sequence GGCCUGGUAAAGUUAGUAATT against Wdr20, the z-score is inactive: -0.345.

In the case of CGAUGCAACUGGAAAACUCTT against Riok1, the z-score was inactive: -0.45.

As for GGGAAAGAUCCAGAACCAGTT against D4Wsu53e, the z-score is inactive: 0.157.

As for GGAGAUCCGUUCAAGGGUUTT against Olfr557, the z-score was inactive: -0.789.

For the sequence GGGCUACUUCCUGACUAAATT against Ube2s, the z-score is inactive: -1.46.

In the case of “CGUGAAAAAGUUAGCAAGUTT against 2610024N01Rik”, the z-score was inactive: 0.72.

On to “GCCGGAUUGAGAUCUCUAUTT against 1500015L24Rik”, for which the z-score was inactive: -1.05.

For the sequence CCUAAUCAACAACUUGGAGTT against Ugcg, the z-score was inactive: 0.431.

For “GGAGACAUUCCAAAUGAGATT against 2810407K09Rik”, the z-score is inactive: -0.507.

For GCCCAGUACUCCGCUUACATT against Bhlhb4, the z-score is inactive: -0.214.

Consider “GGACCAGUUAGUGAAGUGCTT against 0610033I05Rik”, for which the z-score is inactive: 1.51.

Consider GGCAGUUAGACUGGUGUACTT against Foxa3, for which the z-score was inactive: 0.0935.

For GGUCAUUCACAAGUCCUUUTT against Serpinb6b, the z-score is inactive: -0.165.

Take GAUACAUCAACACACUGACTT against Ppy: the z-score is inactive: 0.55.

Turning to GGUUCUUCAUACAAAUUACTT against Edg8, the z-score was inactive: 1.1.

Consider CCUGUAUGGGCAUGAGUUUTT against Ttc8, for which the z-score is inactive: -0.533.

Regarding “GCAUUUAACAAAGAUUUGGTT against 2810441O16Rik”, the z-score was inactive: -0.268.

For the sequence CCAAAAGCAUAUCAGUCGGTT against Olfr1122, the z-score is inactive: -0.398.

In the case of GCUACAAUGACGCAGAGACTT against Kif5a, the z-score was inactive: 0.344.

GGUUUUGGACCAGAUGAGCTT against Abi3: the z-score was inactive: 1.71.

In the case of GGAUAACAACGACAUUUCATT against Col6a1, the z-score was inactive: -0.615.

For GAGAUGGAGCCUGGAAACUTT against Olfr480, the z-score was inactive: -2.16.

Consider GGCUCAAGGCUGAGUUUCATT against En2, for which the z-score is inactive: 0.178.

For the sequence “GCCACUCACCUAGCAAAGATT against 2410025L10Rik”, the z-score is inactive: -0.431.

With GCAAUCACUCUGCAGUGUCTT against Olfr1042, the z-score is inactive: 0.887.

For the sequence “GCAAACAUACGAUGUGAGGTT against 1700019N19Rik”, the z-score is inactive: 0.97.

Regarding GUCAAGAAUAUUAUGACCCTT against Vamp8, the z-score is inactive: 0.361.

On to GGUUUGUGACCAAUAAAACTT against Elk3, for which the z-score is inactive: -0.35.

As for GGAUUUCGACAGCAAACUCTT against Efhd2, the z-score was inactive: 1.71.

Regarding GGCCUUAAAAGGAAAACUATT against Sftpd, the z-score is inactive: 0.542.

For the sequence “CGGCUUUCAAUCACAACGGTT against 9530020G05Rik”, the z-score is inactive: 0.912.

For the sequence GGACAAGUACAGGUUCCUATT against Vrk3, the z-score was inactive: -1.3.

On to GCUAAUAGUCAUUAAACUGTT against Zfp2, for which the z-score was inactive: -0.337.

For GGUCCAGAUAGACAUCCUGTT against Ralb, the z-score was inactive: -0.682.

In the case of CGUAGUGAUCCUGUUCCAGTT against Lisch7, the z-score is inactive: -1.11.

GGUAGUUUAAAAUCUGUGATT against St6gal1: the z-score is inactive: 0.65.

Take GGGCCGAAAUGAAUGAACUTT against Inhba: the z-score is inactive: -0.00136.

With “GGAAGAGACACUUUGUCUATT against 4930519G04Rik”, the z-score was inactive: -0.08.

With GGUGCAGCCACGAAAACAUTT against Lmln, the z-score was inactive: 1.57.

On to “GGACCAACACACAACAUCCTT against 2310067G05Rik”, for which the z-score is inactive: 0.237.

Take GGGAUAUUCAUUGACUUUGTT against Arhgap8: the z-score was inactive: -1.64.

Values taken from PubChem BioAssay AID1347423 (Functional Genomics Laboratory (NCATS/FGL), 2020).
